Drawing on PMC4734655, this text covers binding for two molecules.

No constants are given. Whether binding was seen depends on the method and setting. In cells and extracts the contact can be indirect. Here binding means that the protein was enriched with, or labelled near, the bait; the list need not be complete. Sequences can lack the tags named with a protein.

In this test the target is recombinant human IL-8 (interleukin-8) (human). The test can be described thus: affinity purification with mass spectrometry; only the target purified.

B1: Mycobacterium tuberculosis AtsG (Rv0296c; arylsulfatase), endogenous (enzyme, UniProt Q6MX51 1-465)
chain: MTSERATGQRENLLIVHWHDLGRYLGVYHHPDVYSPRLDRLAAEGILFTRAHATAPLCTPSRGSLFTGRYPQSNGLVGLAHHGWEYRTGVQTLPQLLSESGWYSALFGMQHETSYPKRLGFDEFDVSNSYCEYVVAKAQDWLHNRVPALDGQRFLLTAGFFETHRPYPHERYRPADSAAVELPDYLPDTPEVRQDVAEFYGSIATADEAVGRLLDTLADTGLDASTWVVFVTDHGPAFPRAKSTLYDAGTGIALIIRPPTRRAMAPRVYDELFSGVDLVPTLLDLLRLEVPADVEGVSHAPALLAPDTENAAVRDHVYTAKTYHDSFDPIRAIRTKEYSYIENYAPRPLLDLPWDIQESPAGMAVAPLVKAPRPQRELYDLRADPTETNNLLAGDDSTQGVAAIAADLAVRLHDWRQRTADVIPSDFAGSRIAERYTETYLRIHRKTPTGRSAIAADRGIDEHCS
Consider B1, for which the binding entry is “binds”.

B2: Mycobacterium tuberculosis SerA (Rv2996c; D-3-phosphoglycerate dehydrogenase SerA1), endogenous (enzyme, UniProt P9WNX3 1-528)
chain: MSLPVVLIADKLAPSTVAALGDQVEVRWVDGPDRDKLLAAVPEADALLVRSATTVDAEVLAAAPKLKIVARAGVGLDNVDVDAATARGVLVVNAPTSNIHSAAEHALALLLAASRQIPAADASLREHTWKRSSFSGTEIFGKTVGVVGLGRIGQLVAQRIAAFGAYVVAYDPYVSPARAAQLGIELLSLDDLLARADFISVHLPKTPETAGLIDKEALAKTKPGVIIVNAARGGLVDEAALADAITGGHVRAAGLDVFATEPCTDSPLFELAQVVVTPHLGASTAEAQDRAGTDVAESVRLALAGEFVPDAVNVGGGVVNEEVAPWLDLVRKLGVLAGVLSDELPVSLSVQVRGELAAEEVEVLRLSALRGLFSAVIEDAVTFVNAPALAAERGVTAEICKASESPNHRSVVDVRAVGADGSVVTVSGTLYGPQLSQKIVQINGRHFDLRAQGINLIIHYVDRPGALGKIGTLLGTAGVNIQAAQLSEDAEGPGATILLRLDQDVPDDVRTAIAAAVDAYKLEVVDLS
For the molecule B2, the binding entry is given as “binds”.
